From US20160185859A1 (Pfizer, published 2016)
No constants are given. Whether binding was seen depends on the method and setting. Some entries that bind do so weakly or less than the wild type.

T1: human 5T4 antigen (human, UniProt Q13641 32-355, limits assumed)
T1 sequence: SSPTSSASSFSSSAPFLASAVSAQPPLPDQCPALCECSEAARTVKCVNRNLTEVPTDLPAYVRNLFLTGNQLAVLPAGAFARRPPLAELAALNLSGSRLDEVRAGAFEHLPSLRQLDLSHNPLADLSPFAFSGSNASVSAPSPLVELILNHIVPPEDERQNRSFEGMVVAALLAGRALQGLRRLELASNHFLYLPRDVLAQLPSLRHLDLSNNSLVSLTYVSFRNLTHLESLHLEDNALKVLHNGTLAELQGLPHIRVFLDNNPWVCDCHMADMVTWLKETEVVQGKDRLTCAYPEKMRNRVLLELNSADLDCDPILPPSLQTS


How the values were obtained:
[1] = target: T1, human 5T4 antigen; experiment: BIACORE; CM5 chip with bound human 5T4 antigen
[2] = target: T1, human 5T4 antigen; experiment: ELISA; 5T4 ectodomain Fc constructs and 5T4 chimeras
[3] = target: T1, human 5T4 antigen; experiment: BIACORE (SPR); human 5T4 antigen immobilized on CM5 chip

Binder	binding [1]	binding [2]	binding [3]
murine anti-5T4 antibody A2 (antibody, V domains shown, also called muA2) VH: QVQLQQSRPELVKPGASVKMSCKASGYTFTDYVISWVKQRTGQGLEWIGEIYPGSNSIYYNEKFKGRATLTADKSSSTAYMQLSSLTSEDSAVYFCAMGGNYGFDYWGQGTTLTVSS VL: QIVLTQSPAIMSASLGERVTLTCTASSSVNSNYLHWYQQKPGSSPKLWIYSTSNLASGVPARFSGSGSGTSYSLTISSMEAEDAATYYCHQYHRSPLTFGAGTKLELK	binds	binds	binds
chimeric A2 antibody (antibody, human IgG4, V domains shown, also called ChiA2; ChiA2 γ4) VH: QVQLQQSRPELVKPGASVKMSCKASGYTFTDYVISWVKQRTGQGLEWIGEIYPGSNSIYYNEKFKGRATLTADKSSSTAYMQLSSLTSEDSAVYFCAMGGNYGFDYWGQGTTLTVSS VL: QIVLTQSPAIMSASLGERVTLTCTASSSVNSNYLHWYQQKPGSSPKLWIYSTSNLASGVPARFSGSGSGTSYSLTISSMEAEDAATYYCHQYHRSPLTFGAGTKLELK	–	–	binds
